Test results as given in paper PMC6700525.

Biological target: 3xFLAG:Spc105 (Aspergillus flavus)
Test: co-IP; A. flavus mycelial extracts (PDB, 24 h, 30°C) in IP lysis buffer; anti-Flag antibody on Dynabeads Protein G, 4°C for 12 h; washes in PBST (0.02% Tween); blot with anti-HA antibody

B1: LaeA:HA (protein, UniProt B8N406 1-369)
chain: MFGNGQTGQRLPAMASPPHDSYYSQSLASSRSRNNSDAMDIYAITDRDPPAREPSGYSQWYRNGSPSVNSIHSKSSEKQPFYEENGRMYHAYRKGVYMLPCDEQEQDRLDIFHKLFTVARVSDGLMYAPHPRNGRFLDLGCGTGIWAIDVANKYPDAFVVGVDLAPIQPSNHPKNCEFYAPFDFESPWAMGEDSWDLIHLQMGCGSVMGWPNLYRRIFAHLRPGAWFEQVEIDFEPRCDDRPLEGLAIRQWYQYLKQATQDAMRPINHNSRDTIRDLQEAGFTDIDHQMVGLPLNPWHQDEHERKVARWYNLAVSESIESLSMAPFSRIFNWDLDRIRRISSEVKSEAFNKEIHAYNILHIYQARKPAN
**Q.** Which binding does the source give for B1 here?
**A.** binds

These are yes or no findings as the source states them, for the method shown. Binding seen in cells or lysates may run through a third protein. Binding calls can cover weak binding; strength is not graded here. Sequences can lack the tags named with a protein.
